Our source for the binding values is paper PMC3590144, “Determination of the Structure of the Catabolic N-Succinylornithine Transaminase (AstC) from Escherichia coli” (PLoS ONE, 2013).

Sequences of proteins named here, by UniProt entry; tags and fusion partners are left off.
UniProt P77581: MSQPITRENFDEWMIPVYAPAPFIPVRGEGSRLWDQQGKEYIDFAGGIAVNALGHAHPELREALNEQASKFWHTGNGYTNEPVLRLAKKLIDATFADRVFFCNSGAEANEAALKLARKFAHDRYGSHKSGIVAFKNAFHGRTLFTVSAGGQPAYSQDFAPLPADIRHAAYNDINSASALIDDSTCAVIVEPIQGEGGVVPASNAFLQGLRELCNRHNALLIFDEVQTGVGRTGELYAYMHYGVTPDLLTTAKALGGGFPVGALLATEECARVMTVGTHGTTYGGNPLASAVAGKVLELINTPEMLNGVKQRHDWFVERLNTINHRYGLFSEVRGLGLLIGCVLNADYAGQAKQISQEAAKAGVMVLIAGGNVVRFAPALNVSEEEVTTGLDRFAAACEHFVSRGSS

For this assay, the target named is holo-AstC, N-succinylornithine transaminase from Escherichia coli reconstituted with PLP (E. coli (BL21 DE3)) (UniProt P77581). The experiment in a line: crystal structure; holo-AstC with PLP bound; space group C2, 4 molecules (two full dimers) in the asymmetric unit, 2.20 Å; grown in 1.17 M sodium malonate pH 7, 0.09 M Tris chloride pH 8.0 at 8 °C; both purified.

These are yes or no findings as the source states them, for the method shown. Some entries that bind do so weakly or less than the wild type.

Regarding “holo-AstC, N-succinylornithine transaminase from Escherichia coli reconstituted with PLP (from UniProt P77581 1-406) (enzyme)”, the binding entry is listed as “binds”.
